Results deposited as PubChem BioAssay AID1224830 (NIAID, 2016)

- Aim: 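Regulators of TLR4 signalling towards TNF-alpha in macrophage-like cells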 (primary screen)
- Cells: human THP-1 monocytic leukaemia cells, TNF dual-luciferase reporter clone, PMA-differentiated to macrophage-like cells
- Reagent: siRNA pool against human genes, 50 nM
- Timing: LPS for 4 h, given about 3 days after siRNA transfection
- Treatment: bacterial LPS (TLR4 ligand), 10 ng/ml
- Detection: 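TNF firefly reporter luminescence divided by renilla, normalised to the plate median, then turned into a robust z-score for each replicate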
- Scale: TNF reporter robust z-score: higher = stronger TNF reporter response to LPS
- Active means: 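a well is active when its z-score exceeds 2.8 or falls below -1.5; control wells carry no call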
Here is a random part of about 18,000 reagents tested. Of all reagents, about 2,900 (16%) are marked active. 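Calls are made per well; low scores hint the gene aids the LPS response, high scores that it dampens it.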 Repeated entries: four replicate wells of each siRNA pool.

no.	Gene	TNF reporter robust z-score	activity call
1	CNPY2	-0.4	inactive
2	CNPY2	0.67	inactive
3	CNPY2	-0.31	inactive
4	CNPY2	-0.25	inactive
5	CHCHD1	-0.69	inactive
6	CHCHD1	1.15	inactive
7	CHCHD1	1.29	inactive
8	CHCHD1	0.36	inactive
9	FBXO3	-1.41	inactive
10	FBXO3	2.46	inactive
11	FBXO3	-1.27	inactive
12	FBXO3	0.52	inactive
13	CDX1	0.75	inactive
14	CDX1	1.38	inactive
15	CDX1	1.52	inactive
16	CDX1	1.47	inactive
17	EDIL3	0.41	inactive
18	EDIL3	4.43	active
19	EDIL3	1.28	inactive
20	EDIL3	2.87	active
21	PAGE2B	-0.4	inactive
22	PAGE2B	0.34	inactive
23	PAGE2B	0.67	inactive
24	PAGE2B	0.75	inactive
25	ARID3A	-0.58	inactive
26	ARID3A	-0.02	inactive
27	ARID3A	-0.53	inactive
28	ARID3A	-0.15	inactive
29	GALNT1	-0.07	inactive
30	GALNT1	0.31	inactive
31	GALNT1	-0.49	inactive
32	GALNT1	-0.46	inactive
33	FARP1	-1.1	inactive
34	FARP1	-0.48	inactive
35	FARP1	-0.02	inactive
36	FARP1	-0.55	inactive
37	ABHD5	-0.76	inactive
38	ABHD5	-0.32	inactive
39	ABHD5	0.39	inactive
40	ABHD5	0.97	inactive
41	TSPO	0.03	inactive
42	TSPO	-0.61	inactive
43	TSPO	-0.35	inactive
44	TSPO	-0.88	inactive
45	HAUS8	-0.06	inactive
46	HAUS8	-0.17	inactive
47	HAUS8	-1.02	inactive
48	HAUS8	0.06	inactive

2 of these entries, set out differently.
Gene | TNF reporter robust z-score | activity call
CDX1 | 1.52 | inactive
CDX1 | 1.47 | inactive
